Experimental data taken from US20230002393A1, “CDK KINASE INHIBITOR” (BEIJING BENICALL BIOTECH CO., LTD., priority 2019, published 2023).
Structures were worked out from names or drawings and are uncertain.

Amino acid sequences for entries named in this document (tags omitted).
UniProt Q00534, whole entry: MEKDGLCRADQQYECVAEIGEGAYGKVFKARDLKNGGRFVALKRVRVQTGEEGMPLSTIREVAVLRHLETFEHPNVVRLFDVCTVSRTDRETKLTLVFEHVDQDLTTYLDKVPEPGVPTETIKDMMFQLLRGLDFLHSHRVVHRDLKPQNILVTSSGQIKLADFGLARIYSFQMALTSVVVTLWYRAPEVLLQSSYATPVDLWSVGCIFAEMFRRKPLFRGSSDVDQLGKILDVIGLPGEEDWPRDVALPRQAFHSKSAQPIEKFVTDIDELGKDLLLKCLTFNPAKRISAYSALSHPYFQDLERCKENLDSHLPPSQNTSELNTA
UniProt P24385, whole entry partner: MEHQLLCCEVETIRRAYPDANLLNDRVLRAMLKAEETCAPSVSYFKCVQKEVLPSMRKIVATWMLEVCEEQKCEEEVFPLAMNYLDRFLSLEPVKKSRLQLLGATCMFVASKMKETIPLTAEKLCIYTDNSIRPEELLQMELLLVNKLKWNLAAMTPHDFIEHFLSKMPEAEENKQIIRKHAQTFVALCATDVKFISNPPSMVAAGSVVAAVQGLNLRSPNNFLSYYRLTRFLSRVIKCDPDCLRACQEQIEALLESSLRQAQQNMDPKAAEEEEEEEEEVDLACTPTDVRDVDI

Key:
CDK6/CyclinD1 = CDK6/CyclinD1 (Homo sapiens, UniProt Q00534); experiment: In vitro cell-free CDK6/CyclinD1 kinase activity assay (TR-FRET); details: read-out: IC50 (CDK6), ATP at Km
MCF-7 cells = experiment: Cell viability assay, MCF-7 cells (CellTiter-Glo, 168 h); details: read-out: IC50 (MCF-7)

IC50 (CDK6/CyclinD1): < 100 nM | IC50 (MCF-7 cells): < 500 nM
SMILES: Cn1cc(-c2cc3cnc(Nc4ccc(N5CCNCC5)cn4)nn3c2C2=CCCC2)cn1
